The values below come from publication doi:10.1101/542795.

Amino acid sequences for entries named in this document (tags omitted).
UniProt Q9VEN1: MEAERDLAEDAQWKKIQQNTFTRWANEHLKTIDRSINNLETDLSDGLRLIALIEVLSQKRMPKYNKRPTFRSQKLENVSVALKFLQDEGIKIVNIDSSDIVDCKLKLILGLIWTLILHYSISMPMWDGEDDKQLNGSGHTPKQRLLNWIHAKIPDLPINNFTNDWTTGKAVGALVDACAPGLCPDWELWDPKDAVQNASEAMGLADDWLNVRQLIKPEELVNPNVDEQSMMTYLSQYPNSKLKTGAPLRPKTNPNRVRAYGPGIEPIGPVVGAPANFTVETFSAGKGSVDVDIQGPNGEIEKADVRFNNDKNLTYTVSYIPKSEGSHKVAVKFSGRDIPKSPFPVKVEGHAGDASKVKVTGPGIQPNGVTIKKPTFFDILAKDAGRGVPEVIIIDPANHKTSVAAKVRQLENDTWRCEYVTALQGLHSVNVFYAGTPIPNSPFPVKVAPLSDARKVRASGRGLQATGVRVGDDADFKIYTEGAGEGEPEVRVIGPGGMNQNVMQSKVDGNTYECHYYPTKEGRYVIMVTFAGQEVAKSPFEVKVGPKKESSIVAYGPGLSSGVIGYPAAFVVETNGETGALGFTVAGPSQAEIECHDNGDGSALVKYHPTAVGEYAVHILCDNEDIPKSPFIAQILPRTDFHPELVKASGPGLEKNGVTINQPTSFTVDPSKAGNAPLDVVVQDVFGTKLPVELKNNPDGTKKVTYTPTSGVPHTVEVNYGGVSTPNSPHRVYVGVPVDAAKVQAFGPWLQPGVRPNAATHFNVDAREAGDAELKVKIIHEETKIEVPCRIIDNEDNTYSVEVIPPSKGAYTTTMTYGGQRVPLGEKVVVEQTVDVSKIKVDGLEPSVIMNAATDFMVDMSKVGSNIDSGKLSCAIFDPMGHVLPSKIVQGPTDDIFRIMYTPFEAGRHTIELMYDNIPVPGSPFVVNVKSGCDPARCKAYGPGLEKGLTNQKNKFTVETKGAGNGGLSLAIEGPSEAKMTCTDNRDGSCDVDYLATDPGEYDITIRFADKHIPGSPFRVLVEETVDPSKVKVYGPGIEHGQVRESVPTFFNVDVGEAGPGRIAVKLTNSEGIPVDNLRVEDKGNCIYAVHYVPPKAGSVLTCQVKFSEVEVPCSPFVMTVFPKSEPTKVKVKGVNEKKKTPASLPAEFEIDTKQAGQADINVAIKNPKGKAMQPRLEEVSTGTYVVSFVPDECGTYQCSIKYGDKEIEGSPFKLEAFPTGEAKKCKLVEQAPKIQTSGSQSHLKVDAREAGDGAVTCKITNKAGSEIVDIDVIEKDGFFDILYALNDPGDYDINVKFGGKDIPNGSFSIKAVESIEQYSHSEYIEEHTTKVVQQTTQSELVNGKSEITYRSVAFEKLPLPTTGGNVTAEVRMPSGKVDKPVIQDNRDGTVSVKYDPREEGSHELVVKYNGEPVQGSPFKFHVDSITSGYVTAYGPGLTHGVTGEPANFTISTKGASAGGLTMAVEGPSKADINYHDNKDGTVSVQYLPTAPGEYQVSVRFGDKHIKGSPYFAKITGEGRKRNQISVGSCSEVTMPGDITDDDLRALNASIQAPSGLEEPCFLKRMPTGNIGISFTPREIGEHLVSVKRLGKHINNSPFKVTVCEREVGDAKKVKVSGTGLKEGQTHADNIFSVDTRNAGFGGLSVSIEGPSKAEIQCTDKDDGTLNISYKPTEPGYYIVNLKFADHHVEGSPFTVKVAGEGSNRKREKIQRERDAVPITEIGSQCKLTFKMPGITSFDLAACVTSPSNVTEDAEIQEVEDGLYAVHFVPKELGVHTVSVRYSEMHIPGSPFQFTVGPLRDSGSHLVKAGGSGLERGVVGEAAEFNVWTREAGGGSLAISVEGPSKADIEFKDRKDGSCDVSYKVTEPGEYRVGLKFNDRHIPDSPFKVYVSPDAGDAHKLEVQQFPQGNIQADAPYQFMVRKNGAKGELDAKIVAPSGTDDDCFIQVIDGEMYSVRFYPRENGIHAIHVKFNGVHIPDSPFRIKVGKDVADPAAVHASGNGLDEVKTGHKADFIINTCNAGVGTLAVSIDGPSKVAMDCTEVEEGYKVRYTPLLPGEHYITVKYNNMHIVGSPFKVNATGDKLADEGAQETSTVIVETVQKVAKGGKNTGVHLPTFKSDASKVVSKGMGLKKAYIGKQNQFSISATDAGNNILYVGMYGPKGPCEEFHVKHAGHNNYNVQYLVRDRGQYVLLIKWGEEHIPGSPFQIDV

Holding throughout (assay): proximity labelling
Test [1] deals with APEX2::V5::Kelch (Drosophila melanogaster) (UniProt Q04652).
Test [2] deals with T1, HtsRC::V5::APEX1 (Drosophila melanogaster) (UniProt Q02645).
T1 sequence: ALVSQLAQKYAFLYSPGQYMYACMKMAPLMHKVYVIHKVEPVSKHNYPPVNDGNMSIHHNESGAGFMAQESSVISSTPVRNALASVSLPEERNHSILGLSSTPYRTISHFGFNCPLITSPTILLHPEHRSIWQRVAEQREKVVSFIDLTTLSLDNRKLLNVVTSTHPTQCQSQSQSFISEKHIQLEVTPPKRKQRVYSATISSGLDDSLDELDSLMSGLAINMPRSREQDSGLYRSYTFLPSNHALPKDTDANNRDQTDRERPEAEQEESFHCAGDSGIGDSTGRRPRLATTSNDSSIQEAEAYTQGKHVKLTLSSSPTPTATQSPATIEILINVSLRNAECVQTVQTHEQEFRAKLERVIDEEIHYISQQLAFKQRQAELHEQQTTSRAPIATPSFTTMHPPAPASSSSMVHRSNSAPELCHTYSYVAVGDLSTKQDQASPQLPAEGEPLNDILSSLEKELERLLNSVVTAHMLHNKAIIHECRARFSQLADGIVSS

The target in test [3] is T1, HtsRC::V5::APEX1 (Drosophila melanogaster). This is another data set of the same source.

Where two headings read alike, the source gives them in different places. These are yes or no findings as the source states them, for the method shown. In cells and extracts the contact can be indirect. A yes stands for co-enrichment or nearness to the bait. Other partners may have been found. For part of these data: No binding means not detected with the bait. For part of these data: Where a sequence is shown, tags or fusion partners need not be part of it.

Filamin (from UniProt Q9VEN1 1-2210): the binding result in test [1] was “no binding”.

Regarding Msp300 (from UniProt M9MRD1 1-12345), the binding entry in test [2] was “binds”.

B1: CG9336 (protein, UniProt Q9VII1 24-125)
chain: IKCYQCESLTMPKCGLKFEADETLLLDCSRIGPPRYLQNFFPLRNATGCMKKTLESVAGHPQIVRSCYFGDINNIQAGCQSDPSMPFVKQLGCDVCTKDECN
As to B1, the binding result in test [1] is “binds”.

B2: HtsRC (protein, UniProt Q02645 659-1156)
chain: ALVSQLAQKYAFLYSPGQYMYACMKMAPLMHKVYVIHKVEPVSKHNYPPVNDGNMSIHHNESGAGFMAQESSVISSTPVRNALASVSLPEERNHSILGLSSTPYRTISHFGFNCPLITSPTILLHPEHRSIWQRVAEQREKVVSFIDLTTLSLDNRKLLNVVTSTHPTQCQSQSQSFISEKHIQLEVTPPKRKQRVYSATISSGLDDSLDELDSLMSGLAINMPRSREQDSGLYRSYTFLPSNHALPKDTDANNRDQTDRERPEAEQEESFHCAGDSGIGDSTGRRPRLATTSNDSSIQEAEAYTQGKHVKLTLSSSPTPTATQSPATIEILINVSLRNAECVQTVQTHEQEFRAKLERVIDEEIHYISQQLAFKQRQAELHEQQTTSRAPIATPSFTTMHPPAPASSSSMVHRSNSAPELCHTYSYVAVGDLSTKQDQASPQLPAEGEPLNDILSSLEKELERLLNSVVTAHMLHNKAIIHECRARFSQLADGIVSS
On to B2, for which the binding result in test [2] and in test [3] was “binds” in each case.

B3: HtsRC::V5::APEX1 (protein, UniProt Q02645 659-1156)
chain: ALVSQLAQKYAFLYSPGQYMYACMKMAPLMHKVYVIHKVEPVSKHNYPPVNDGNMSIHHNESGAGFMAQESSVISSTPVRNALASVSLPEERNHSILGLSSTPYRTISHFGFNCPLITSPTILLHPEHRSIWQRVAEQREKVVSFIDLTTLSLDNRKLLNVVTSTHPTQCQSQSQSFISEKHIQLEVTPPKRKQRVYSATISSGLDDSLDELDSLMSGLAINMPRSREQDSGLYRSYTFLPSNHALPKDTDANNRDQTDRERPEAEQEESFHCAGDSGIGDSTGRRPRLATTSNDSSIQEAEAYTQGKHVKLTLSSSPTPTATQSPATIEILINVSLRNAECVQTVQTHEQEFRAKLERVIDEEIHYISQQLAFKQRQAELHEQQTTSRAPIATPSFTTMHPPAPASSSSMVHRSNSAPELCHTYSYVAVGDLSTKQDQASPQLPAEGEPLNDILSSLEKELERLLNSVVTAHMLHNKAIIHECRARFSQLADGIVSS
Turning to B3, the binding entry in test [3] was “binds”.
